The list shows only some results of the screen, not a fair sample: it is rich in T/C values a quarter to a half above the control, in often repeated tests (any T/C) and in doses without a T/C. Other doses and runs of a compound stand elsewhere. T/C: endpoint of the treated group in % of that of the vehicle group. Some entries give survivors of the animals treated and no T/C: the source holds a T/C of zero for them, seemingly a mark for toxic or unscored doses. Some survivor counts are full or nearly so, which does not show that the dose was tolerated: survival well below the control is almost never listed, so the zero probably covers shortened survival too. Counts of survivors are from the toxicity check (mostly the fifth day) where no day follows; animals may have died later. Schedules are NCI's codes, read here as Q, the interval in days (D) or hours (H), X, the number of doses. Some entries hold several experiments; the results are listed from low to high. For survival time, this PubChem deposit counts one and a half times the control or more as active, and values a quarter to a half above the control carry no call in these data; other NCI protocols may use other cut-offs. Some T/C values carry the count of animals alive at the toxicity check (mostly the fifth day); where none is given, no animal had died by that day. Non-standard residues stand in square brackets, D forms with d. Residues, ends and D or L forms follow the SMILES beside them. Ac5c = NC1(C(=O)O)CCCC1
Test system: BDF1 mice, P388 leukemia ip, median survival T/C
Assay: NCI In Vivo Anticancer Drug Screen. Data for tumor model P388 Leukemia (intraperitoneal) in B6D2F1 (BDF1) mice
Details: T/C endpoint: median survival time, higher T/C = longer survival
How it was run: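 Each value expresses how treatment altered survival: treated-mouse outcome over vehicle-mouse outcome, both groups bearing the transplanted tumour.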

[1] = dose: 6.25 mg/kg/injection, schedule: Q01DX009 (ip), vehicle: saline with Tween-80
[2] = dose: 12.5 mg/kg/injection, schedule: Q01DX009 (ip), vehicle: saline with Tween-80
[3] = dose: 25.0 mg/kg/injection, schedule: Q01DX009 (ip), vehicle: saline with Tween-80
[4] = dose: 50.0 mg/kg/injection, schedule: Q01DX009 (ip), vehicle: saline with Tween-80
[5] = dose: 100.0 mg/kg/injection, schedule: Q01DX009 (ip), vehicle: saline with Tween-80
[6] = dose: 400.0 mg/kg/injection, schedule: Q04DX002 (ip), vehicle: saline with Tween-80
[7] = dose: 400.0 mg/kg/injection, schedule: Q01DX009 (ip), vehicle: Klucel (hydroxypropylcellulose) (HPC)
[8] = dose: 400.0 mg/kg/injection, schedule: Q01DX009 (ip), vehicle: saline with Tween-80
[9] = dose: 200.0 mg/kg/injection, schedule: Q01DX009 (ip), vehicle: saline with Tween-80
[10] = dose: 200.0 mg/kg/injection, schedule: Q04DX003 (ip), vehicle: saline with Tween-80
[11] = dose: 400.0 mg/kg/injection, schedule: Q04DX003 (ip), vehicle: saline with Tween-80
[12] = dose: 400.0 mg/kg/injection, schedule: Q01DX009 (ip), vehicle: saline
[13] = dose: 200.0 mg/kg/injection, schedule: Q01DX009 (ip), vehicle: water

## CS(=O)(=O)Nc1ccc(Nc2c3ccccc3nc3cc([N+](=O)[O-])ccc23)cc1
dose: 0.37 mg/kg/injection, schedule: Q04DX003 (ip), vehicle: saline with Tween-80
  T/C: 125 % of control
dose: 0.75 mg/kg/injection, schedule: Q04DX003 (ip), vehicle: saline with Tween-80
  T/C: 141 and 145 % of control
[1]
  survivor count: 6 of 6
[2]
  survivor count: 6 of 6
[3]
  survivor count: 3 of 6 and 5 of 6
dose: 33.5 mg/kg/injection, schedule: Q04DX003 (ip), vehicle: saline with Tween-80
  T/C: 127 % of control
[4]
  survivor count: 5 of 6
dose: 50.0 mg/kg/injection, schedule: Q04DX003 (ip), vehicle: saline with Tween-80
  survivor count: 6 of 6
dose: 75.0 mg/kg/injection, schedule: Q04DX003 (ip), vehicle: saline with Tween-80
  survivor count: 4 of 6
[5]
  survivor count: 6 of 6

## CCC[N+](C)(C)CCCCOCCCC[N+](C)(C)CCC
dose: 25.0 mg/kg/injection, schedule: Q04DX003 (ip), vehicle: saline
  survivor count: 0 of 6

## CC(=O)CC(C)=O.CC(=O)CC(C)=O.Cc1c[nH]cn1.O=N[O-].[Co]
[6]
  survivor count: 5 of 6

## CC1CCC2=C(C1)S(=O)(=O)CC2 (centres undefined)
dose: 100.0 mg/kg/injection, schedule: Q04DX002 (ip), vehicle: saline with Tween-80
  survivor count: 0 of 6
dose: 200.0 mg/kg/injection, schedule: Q04DX002 (ip), vehicle: saline with Tween-80
  survivor count: 0 of 6
[6]
  survivor count: 0 of 6

## CCCCCSc1nc(N)nc2nc[nH]c12
[7]
  survivor count: 1 of 6

## Cc1c(O)ccc(=O)n1O
dose: 80.0 mg/kg/injection, schedule: Q01DX009 (ip), vehicle: saline with Tween-80
  T/C: 138 % of control
dose: 80.0 mg/kg/injection, schedule: Q01DX009 (ip), vehicle: saline
  T/C: 136 % of control
dose: 160.0 mg/kg/injection, schedule: Q01DX009 (ip), vehicle: Klucel (hydroxypropylcellulose) (HPC)
  T/C: 135 % of control [5 of 6 alive]
dose: 320.0 mg/kg/injection, schedule: Q01DX009 (ip), vehicle: Klucel (hydroxypropylcellulose) (HPC)
  survivor count: 5 of 6
[8]
  survivor count: 5 of 6

## CCOC(=O)/C=C(/C)Sc1cc(O)c2ccccc2c1O
[1]
  T/C: 130 % of control

## Cc1ccc(-c2cc(C)n(C)[n+]2C)cc1
[4]
  survivor count: 0 of 6

## COC(=O)C1(C(=O)OC)C2CC(C)=C(C)CC21 (centres undefined)
dose: 75.0 mg/kg/injection, schedule: Q04DX003 (ip), vehicle: saline
  survivor count: 6 of 6

## CC1CN1P(=S)(N1CCCC1)N1CC1C (centres undefined)
[9]
  survivor count: 6 of 6

## COC1CC(N=[N+]=[N-])C(O)C(C)O1 (centres undefined)
[10]
  T/C: 125 % of control
[11]
  T/C: 130 % of control

## S=C(S)N1CCN(C(=S)S)CC1
dose: 50.0 mg/kg/injection, schedule: Q01DX009 (ip), vehicle: saline
  T/C: 131 % of control
dose: 75.0 mg/kg/injection, schedule: Q01DX009 (ip), vehicle: saline
  T/C: 95, 100, 104, 105 % of control
dose: 150.0 mg/kg/injection, schedule: Q01DX009 (ip), vehicle: saline
  survivor count: 6 of 6
dose: 300.0 mg/kg/injection, schedule: Q01DX009 (ip), vehicle: saline
  survivor count: 0 of 6
[12]
  survivor count: 0 of 6

## O=NN(CS(=O)(=O)O)c1ccccc1
[7]
  survivor count: 5 of 6

## NCC(=O)NC1(C(=O)O)CCCC1 (H-Gly-[Ac5c]-OH)
[12]
  survivor count: 6 of 6

## Nc1ccc2cc3ccc(N)cc3nc2c1
dose: 16.5 mg/kg/injection, schedule: Q01DX009 (ip), vehicle: saline
  T/C: 140 % of control
dose: 37.5 mg/kg/injection, schedule: Q01DX009 (ip), vehicle: saline
  survivor count: 6 of 6

## COC1C(O)CC(=O)OC(C)C/C=C/C=C/C(OC2CCC(N(C)C)C(C)O2)C(C)CC(CC=O)C1OC1OC(C)C(OC2CC(C)(O)C(O)C(C)O2)C(N(C)C)C1O (centres undefined)
[1]
  survivor count: 3 of 3
[2]
  survivor count: 3 of 3
[3]
  survivor count: 3 of 3
[5]
  survivor count: 0 of 3
[9]
  survivor count: 0 of 3
[8]
  survivor count: 0 of 3

## COC(=O)c1cc(-c2ccccc2)[nH]c1-c1ccccc1
dose: 100.0 mg/kg/injection, schedule: Q01DX009 (ip), vehicle: saline
  survivor count: 4 of 6
dose: 200.0 mg/kg/injection, schedule: Q01DX009 (ip), vehicle: saline
  survivor count: 6 of 6

## O=C(Nc1cccc2ccccc12)C(F)(F)F
[10]
  survivor count: 3 of 6
[11]
  survivor count: 0 of 6

## CCOC(=O)Nc1ccc(/C=C\c2ccnc3ccccc23)cc1
[5]
  survivor count: 6 of 6
[9]
  survivor count: 4 of 6

## CC1OC(OC2CCCc3ccccc32)CC(N)C1O (centres undefined)
dose: 16.0 mg/kg/injection, schedule: Q01DX009 (ip), vehicle: water
  T/C: 126 % of control

## COc1cc(N(CCCl)CCCl)c(OC)cc1/C=N\Nc1nncn1N
dose: 50.0 mg/kg/injection, schedule: Q04DX003 (ip), vehicle: saline sonified
  survivor count: 5 of 6
dose: 100.0 mg/kg/injection, schedule: Q04DX003 (ip), vehicle: saline sonified
  survivor count: 2 of 6

## CC(C)(C#N)N=NC(C)(C)C#N
dose: 75.0 mg/kg/injection, schedule: Q01DX009 (ip), vehicle: Klucel (hydroxypropylcellulose) (HPC)
  survivor count: 0 of 6
dose: 115.0 mg/kg/injection, schedule: Q01DX009 (ip), vehicle: Klucel (hydroxypropylcellulose) (HPC)
  survivor count: 0 of 6

## COc1ccc(C2=CC(c3ccc(OC)c(OC)c3)c3c(c4ccccc4oc3=O)O2)cc1OC (centres undefined)
dose: 100.0 mg/kg/injection, schedule: Q04DX003 (ip), vehicle: water
  survivor count: 4 of 6
[13]
  T/C: 126 % of control
  survivor count: 6 of 6
dose: 300.0 mg/kg/injection, schedule: Q01DX009 (ip), vehicle: water
  survivor count: 6 of 6
dose: 400.0 mg/kg/injection, schedule: Q01DX009 (ip), vehicle: water
  survivor count: 4 of 6

## CC(C)CCNc1ncnc2[nH]ncc12
dose: 12.5 mg/kg/injection, schedule: Q01DX009 (ip), vehicle: Klucel (hydroxypropylcellulose) (HPC)
  survivor count: 6 of 6
dose: 50.0 mg/kg/injection, schedule: Q01DX009 (ip), vehicle: Klucel (hydroxypropylcellulose) (HPC)
  survivor count: 4 of 6
[5]
  survivor count: 2 of 6
dose: 110.0 mg/kg/injection, schedule: Q04DX003 (ip), vehicle: Klucel (hydroxypropylcellulose) (HPC)
  survivor count: 2 of 6
dose: 170.0 mg/kg/injection, schedule: Q04DX003 (ip), vehicle: Klucel (hydroxypropylcellulose) (HPC)
  survivor count: 0 of 6
dose: 255.0 mg/kg/injection, schedule: Q04DX003 (ip), vehicle: Klucel (hydroxypropylcellulose) (HPC)
  survivor count: 0 of 6
